For some assays here: Most of the hits are listed elsewhere, so they are rarer here than in the full data. Inconclusive results are not listed. This is a selection; strong and weak results do not stand in their true shares. The source holds several records for some structures; these can differ, active in one and inactive in another. The source made the active and inactive calls. How the source made its calls, unless noted: active means hit-call score of the fitted dose curve at least 0.9, where 1 is the maximum; inactive means score below 0.9.
Legend:
[1] = molecular target: Glucocorticoid receptor (Homo sapiens) (UniProt P04150); test: NVS_NR_hGR: NovaScreen (NVS) Nuclear Receptor Binding Assay for human Glucocorticoid Receptor (GR) (AID 2283363; active means hit-call score of the fitted dose curve at least 0.9, where 1 is the maximum;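 further: activity is loss of specific radioligand binding signal relative to DMSO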)
Method in brief: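 Competitive displacement of a labelled ligand was measured on cell-free receptor preparations after 16 h exposure. Initial testing used 25 uM in duplicate with plate controls; confirmed actives went into concentration series.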

Chains of the proteins cited; added tags and fusions are not shown. Lines headed by an entry give the natural chain unless they say otherwise; changes in a name come on top.
UniProt P04150: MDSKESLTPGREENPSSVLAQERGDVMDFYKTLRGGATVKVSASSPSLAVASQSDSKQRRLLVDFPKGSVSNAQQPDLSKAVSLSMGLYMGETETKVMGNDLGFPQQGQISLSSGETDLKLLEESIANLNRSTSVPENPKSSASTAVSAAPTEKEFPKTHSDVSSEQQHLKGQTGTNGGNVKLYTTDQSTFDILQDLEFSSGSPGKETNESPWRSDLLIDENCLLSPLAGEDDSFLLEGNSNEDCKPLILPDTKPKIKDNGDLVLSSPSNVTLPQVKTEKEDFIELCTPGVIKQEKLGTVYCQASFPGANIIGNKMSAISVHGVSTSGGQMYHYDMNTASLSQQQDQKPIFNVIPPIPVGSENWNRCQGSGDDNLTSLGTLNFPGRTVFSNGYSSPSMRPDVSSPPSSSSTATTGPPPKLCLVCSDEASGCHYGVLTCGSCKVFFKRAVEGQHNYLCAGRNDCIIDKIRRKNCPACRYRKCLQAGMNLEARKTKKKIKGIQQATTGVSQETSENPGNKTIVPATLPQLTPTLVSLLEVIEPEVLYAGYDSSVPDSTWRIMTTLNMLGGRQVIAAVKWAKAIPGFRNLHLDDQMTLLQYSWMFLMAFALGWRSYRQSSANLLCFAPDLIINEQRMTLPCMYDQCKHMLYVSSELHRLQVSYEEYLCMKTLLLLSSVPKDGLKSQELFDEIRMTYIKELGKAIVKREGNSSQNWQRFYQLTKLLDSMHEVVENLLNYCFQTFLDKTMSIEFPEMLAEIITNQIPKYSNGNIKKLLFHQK
UniProt P23975, whole entry, looked up: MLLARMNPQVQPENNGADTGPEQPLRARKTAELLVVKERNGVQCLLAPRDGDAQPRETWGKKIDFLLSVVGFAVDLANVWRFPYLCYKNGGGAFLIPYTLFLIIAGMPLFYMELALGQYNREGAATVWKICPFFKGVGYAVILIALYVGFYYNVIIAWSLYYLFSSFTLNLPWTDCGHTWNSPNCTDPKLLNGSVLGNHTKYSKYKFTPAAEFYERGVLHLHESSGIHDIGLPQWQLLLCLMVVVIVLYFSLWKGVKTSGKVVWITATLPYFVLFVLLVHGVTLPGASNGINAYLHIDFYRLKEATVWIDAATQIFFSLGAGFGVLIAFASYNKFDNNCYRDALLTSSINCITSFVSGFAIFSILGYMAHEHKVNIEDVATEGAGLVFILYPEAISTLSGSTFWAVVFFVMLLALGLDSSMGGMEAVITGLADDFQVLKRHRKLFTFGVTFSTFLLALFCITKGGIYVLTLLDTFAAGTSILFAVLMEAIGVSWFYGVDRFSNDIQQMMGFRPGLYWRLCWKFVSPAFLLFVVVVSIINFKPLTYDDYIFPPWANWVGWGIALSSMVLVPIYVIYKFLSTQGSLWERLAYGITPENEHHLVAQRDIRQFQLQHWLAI
UniProt P19793: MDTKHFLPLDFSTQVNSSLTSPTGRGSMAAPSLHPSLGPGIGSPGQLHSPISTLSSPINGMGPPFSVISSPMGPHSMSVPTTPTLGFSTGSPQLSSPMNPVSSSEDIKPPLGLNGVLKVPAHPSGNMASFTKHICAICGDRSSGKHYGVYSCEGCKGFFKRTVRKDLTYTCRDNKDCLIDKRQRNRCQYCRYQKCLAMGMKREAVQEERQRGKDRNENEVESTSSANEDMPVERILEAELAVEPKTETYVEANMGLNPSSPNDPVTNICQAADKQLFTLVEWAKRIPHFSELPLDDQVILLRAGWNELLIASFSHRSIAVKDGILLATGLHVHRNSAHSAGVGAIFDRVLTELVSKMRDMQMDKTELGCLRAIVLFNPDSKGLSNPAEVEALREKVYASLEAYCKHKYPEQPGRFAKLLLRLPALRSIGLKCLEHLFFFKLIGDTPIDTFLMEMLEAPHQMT
UniProt P37231: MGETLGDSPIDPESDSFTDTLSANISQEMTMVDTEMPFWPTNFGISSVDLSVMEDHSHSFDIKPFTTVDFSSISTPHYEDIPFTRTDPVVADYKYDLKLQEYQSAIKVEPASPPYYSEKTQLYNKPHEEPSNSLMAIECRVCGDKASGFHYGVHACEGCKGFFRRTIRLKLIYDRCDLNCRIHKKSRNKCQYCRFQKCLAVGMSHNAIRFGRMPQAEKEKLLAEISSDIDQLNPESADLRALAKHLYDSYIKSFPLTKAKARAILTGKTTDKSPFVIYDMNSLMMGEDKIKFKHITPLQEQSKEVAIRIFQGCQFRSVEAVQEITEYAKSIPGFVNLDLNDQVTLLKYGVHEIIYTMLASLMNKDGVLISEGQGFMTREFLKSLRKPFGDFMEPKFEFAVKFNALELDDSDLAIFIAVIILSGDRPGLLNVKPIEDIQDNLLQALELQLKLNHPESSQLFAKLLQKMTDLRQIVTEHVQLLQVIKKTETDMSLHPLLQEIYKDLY
UniProt P33261, whole entry, looked up: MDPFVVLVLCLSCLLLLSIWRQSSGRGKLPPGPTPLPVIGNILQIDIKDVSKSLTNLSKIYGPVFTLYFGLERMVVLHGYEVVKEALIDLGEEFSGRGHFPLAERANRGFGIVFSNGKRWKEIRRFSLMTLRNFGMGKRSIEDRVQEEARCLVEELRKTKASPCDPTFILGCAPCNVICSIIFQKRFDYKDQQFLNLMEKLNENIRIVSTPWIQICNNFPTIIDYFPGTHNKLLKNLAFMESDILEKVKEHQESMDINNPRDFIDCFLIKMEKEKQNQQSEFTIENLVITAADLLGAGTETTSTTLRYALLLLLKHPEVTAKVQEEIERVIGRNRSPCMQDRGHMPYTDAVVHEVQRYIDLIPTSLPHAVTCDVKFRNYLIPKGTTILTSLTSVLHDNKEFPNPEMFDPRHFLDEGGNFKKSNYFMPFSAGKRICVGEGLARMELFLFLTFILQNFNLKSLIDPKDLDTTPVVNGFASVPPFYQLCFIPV
UniProt Q5TCH4: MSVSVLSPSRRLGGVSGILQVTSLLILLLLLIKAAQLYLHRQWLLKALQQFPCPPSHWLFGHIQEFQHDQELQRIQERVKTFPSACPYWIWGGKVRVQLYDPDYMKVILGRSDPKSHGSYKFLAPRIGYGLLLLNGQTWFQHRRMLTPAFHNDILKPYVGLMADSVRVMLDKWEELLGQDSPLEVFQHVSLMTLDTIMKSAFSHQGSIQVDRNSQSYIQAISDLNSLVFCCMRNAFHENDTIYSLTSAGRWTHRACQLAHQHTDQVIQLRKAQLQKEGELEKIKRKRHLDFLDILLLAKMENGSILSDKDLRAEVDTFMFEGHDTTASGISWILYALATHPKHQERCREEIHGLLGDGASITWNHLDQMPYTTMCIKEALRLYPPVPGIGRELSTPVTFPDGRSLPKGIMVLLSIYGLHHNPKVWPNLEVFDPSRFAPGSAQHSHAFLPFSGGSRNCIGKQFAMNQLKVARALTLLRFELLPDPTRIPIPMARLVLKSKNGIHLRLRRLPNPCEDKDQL
UniProt P08659, whole entry, looked up: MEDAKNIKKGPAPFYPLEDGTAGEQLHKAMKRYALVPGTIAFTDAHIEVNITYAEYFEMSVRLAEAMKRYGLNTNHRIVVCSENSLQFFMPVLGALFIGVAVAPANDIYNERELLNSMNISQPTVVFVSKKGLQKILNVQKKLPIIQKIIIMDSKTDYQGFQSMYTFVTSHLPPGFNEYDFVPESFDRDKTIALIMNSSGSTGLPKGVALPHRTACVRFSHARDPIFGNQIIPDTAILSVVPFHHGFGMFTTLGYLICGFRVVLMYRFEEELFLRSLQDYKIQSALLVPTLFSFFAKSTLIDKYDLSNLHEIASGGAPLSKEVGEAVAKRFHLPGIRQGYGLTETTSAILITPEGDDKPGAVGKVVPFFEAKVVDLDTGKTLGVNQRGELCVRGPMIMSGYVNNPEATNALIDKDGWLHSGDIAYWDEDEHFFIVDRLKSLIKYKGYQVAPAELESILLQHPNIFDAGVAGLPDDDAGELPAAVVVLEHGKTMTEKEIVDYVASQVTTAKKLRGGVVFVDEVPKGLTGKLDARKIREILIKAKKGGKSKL

[2] = molecular target: human Norepinephrine Transporter (NET), SLC6A2 (gene 6530) (UniProt P23975); test: NVS_TR_hNET: NovaScreen (NVS) Transporter Assay for human Norepinephrine Transporter (NET) (AID 2283377; active means hit-call score of the fitted dose curve at least 0.9, where 1 is the maximum;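 further: cell-free membrane protein extracted from CHO cells expressing human NET; displacement of radioligand from human NET seen as loss of scintillation signal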)
Method in brief: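 Scintillation counts of filter-retained radioligand served as the readout, taken 1 h post-dosing in a cell-free CHO-derived system. Test chemicals ran first at 25 uM in duplicate; confirmed hits were retested across concentrations.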

[3] = molecular target: Retinoic acid receptor RXR-alpha (Homo sapiens) (UniProt P19793); test: OT_NURR1_NURR1RXRa_0480: Odyssey Thera (OT) 8-hour HEK293T Protein Complementation Assay for Nurr1/retinoid X receptor (RXR) (AID 2283385; active means hit-call score of the fitted dose curve at least 0.9, where 1 is the maximum)
Method in brief: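 8 h compound exposure, HEK293T; Nurr1/RXRα fragment complementation; fluorescence intensity; positive fitting direction vs DMSO baseline.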

[4] = molecular target: Peroxisome proliferator-activated receptor gamma (Homo sapiens) (UniProt P37231); test: OT_PPARg_PPARgSRC1_1440: Odyssey Thera (OT) 24-hour Protein-Complementation Assay for Peroxisome Proliferator-activated Receptor Gamma/ SRC-1 Co-activator (AID 2283388; active means hit-call score of the fitted dose curve at least 0.9, where 1 is the maximum)
Method in brief: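 HEK293T cells transiently transfected with PPARg and SRC-1 fused via (Gly4Ser)2 linker to split Venus YFP fragments (IFP1/IFP2) were dosed 24 h; fixed, Draq5-stained, imaged at 488/635 nm; nuclear/cytoplasmic fluorescence ratio scored versus DMSO baseline, gain-of-signal.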

[5] = read-out: Cytochrome P450 (CYP1A1), CYP1A1 (gene 1543); test: LTEA_HepaRG_CYP1A1: Life Technologies and Expression Analysis (LTEA) Assay for Cytochrome P450 (CYP1A1) using HepaRG (AID 2283454); conditions: actives raise or lower the signal; mRNA level, 48 h
Method in brief: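 Differentiated HepaRG cells in serum-free induction medium were exposed in duplicate for 48 h to eight half-log concentrations up to 100 uM in 0.5% DMSO. CYP1A1 mRNA was quantified by TaqMan qRT-PCR, normalized to ACTB, GAPDH and POLR2A.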

[6] = read-out: Bcl-2 (BAD) gene, BAD (gene 572); test: LTEA_HepaRG_BAD: Life Technologies and Expression Analysis (LTEA) Assay for Bcl-2 (BAD) gene using HepaRG (AID 2283469); conditions: actives raise or lower the signal; mRNA level, 48 h
Method in brief: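 BAD transcript change, measured by qRT-PCR against three housekeeping genes and fitted in both directions relative to 0.5% DMSO, after 48 h chemical treatment of human HepaRG liver cells at concentrations up to 100 uM.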

[7] = read-out: Alpha-fetoprotein (AFP) gene, AFP (gene 174); test: LTEA_HepaRG_AFP: Life Technologies and Expression Analysis (LTEA) Assay for Alpha-fetoprotein (AFP) gene using HepaRG (AID 2283472); conditions: actives raise or lower the signal; mRNA level, 48 h
[8] = read-out: Cytochrome P450 2C19 (Homo sapiens) (UniProt P33261); test: LTEA_HepaRG_CYP2C19: Life Technologies and Expression Analysis (LTEA) Assay for CYP2C19 using HepaRG (AID 2283482); conditions: actives raise or lower the signal; mRNA level, 48 h
Method in brief: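 Differentiated human HepaRG cells were exposed for 48 h in serum-free induction medium to 8 concentrations (top 100 uM, half-log steps, 0.5% DMSO). CYP2C19 mRNA was measured by qRT-PCR, normalized to ACTB/GAPDH/POLR2A, and fitted bidirectionally against DMSO.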

[9] = read-out: Cytochrome P450 4A22 (Homo sapiens) (UniProt Q5TCH4); test: LTEA_HepaRG_CYP4A22: Life Technologies and Expression Analysis (LTEA) Assay for Cytochrome P450 4A22 (CYP4A22) using HepaRG (AID 2283495); conditions: actives raise or lower the signal; mRNA level, 48 h
Method in brief: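 qRT-PCR of CYP4A22 mRNA (Fluidigm TaqMan, normalized to three housekeeping genes) after 48 h chemical exposure of HepaRG cells; 8-point half-log series, top 100 uM, 0.5% DMSO vehicle. Bidirectional curve fitting vs DMSO baseline.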

[10] = read-out: matrix metalloproteinase-10 (MMP10), MMP10 (gene 4319); test: LTEA_HepaRG_MMP10: Life Technologies and Expression Analysis (LTEA) Assay for matrix metalloproteinase-10 (MMP10) using HepaRG (AID 2283517); conditions: actives raise or lower the signal; mRNA level, 48 h
Method in brief: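 Gain or loss of MMP10 mRNA is fitted relative to the 0.5% DMSO vehicle. The human hepatic line HepaRG receives a 48-hour serum-free exposure, in duplicate, with a maximum concentration of 100 uM.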

[11] = read-out: Protein phosphatase 2A (PPP2R4), PTPA (gene 5524); test: LTEA_HepaRG_PPP2R4: Life Technologies and Expression Analysis (LTEA) Assay for Protein phosphatase 2A (PPP2R4) using HepaRG (AID 2283522); conditions: actives raise or lower the signal; mRNA level, 48 h
Method in brief: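 Readout is PPP2R4 transcript level by microfluidic qRT-PCR after 48 h chemical treatment of human HepaRG liver cells. Concentrations spanned 100 uM downward in half-log steps; gain or loss of signal was fitted relative to DMSO.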

[12] = read-out: UDP glucuronosyltransferase (UGT1A6), UGT1A6 (gene 54578); test: LTEA_HepaRG_UGT1A6: Life Technologies and Expression Analysis (LTEA) Assay for UDP glucuronosyltransferase (UGT1A6) using HepaRG (AID 2283539); conditions: actives raise or lower the signal; mRNA level, 48 h
Method in brief: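 Human HepaRG cells were dosed for 48 h in serum-free induction medium with 0.5% DMSO vehicle, eight-point half-log series from 100 uM, in duplicate. UGT1A6 mRNA was measured by qRT-PCR, normalized to ACTB, GAPDH, POLR2A, and fitted bidirectionally against DMSO.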

[13] = read-out: X-box binding protein 1 (XBP1), XBP1 (gene 7494); test: LTEA_HepaRG_XBP1: Life Technologies and Expression Analysis (LTEA) Assay for X-box binding protein 1 (XBP1) using HepaRG (AID 2283540); conditions: actives raise or lower the signal; mRNA level, 48 h
Method in brief: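 Differentiated human HepaRG cells in serum-free induction medium were exposed in duplicate for 48 h to eight half-log concentrations up to 100 uM in 0.5% DMSO. XBP1 mRNA was quantified by qRT-PCR, normalised to ACTB, GAPDH and POLR2A, with bidirectional fitting against DMSO.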

[14] = ATG_XTT_Cytotoxicity: Cytotoxicity Assessment in the Attagene TRANS-FACTORIAL HepG2 Assay (AID 2283584; active means hit-call score of the fitted dose curve at least 0.9, where 1 is the maximum)
Method in brief: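 HepG2 human liver cells, transiently transfected with multiple GAL4-UAS reporter units, were dosed and read at 24 h by XTT as cell number. Loss of signal was fitted relative to DMSO negative control baseline.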

[15] = read-out: matrix metalloproteinase-1 (MMP1), MMP1 (gene 4312); test: LTEA_HepaRG_MMP1: Life Technologies and Expression Analysis (LTEA) Assay for matrix metalloproteinase-1 (MMP1) using HepaRG (AID 2283658); conditions: actives raise or lower the signal; mRNA level, 48 h
Method in brief: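 Differentiated HepaRG cells, plated 48 h then switched to serum-free induction medium, were exposed in duplicate for 48 h to eight half-log concentrations up to 100 uM in 0.5% DMSO; MMP1 mRNA measured by qRT-PCR, normalized to ACTB, GAPDH, POLR2A.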

[16] = system: Thyroperoxidase (TPO), gene 54314; test: CCTE_Simmons_AUR_rTPO: CCTE's Amplex UltraRed Assay for Thyroperoxidase (TPO) Inhibition, Simmons Lab (AID 2283662; active means hit-call score of the fitted dose curve at least 0.9, where 1 is the maximum;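 further: potency for loss of signal meaning inhibition of peroxidase activity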)
Method in brief: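 Rat thyroid microsomes (5 ug protein) with 25 uM Amplex UltraRed and 300 uM H2O2 in 200 mM phosphate buffer, 30 min at 37C in dark; fluorescence 544/590 nm. Eight concentrations, 5 nM–87.5 uM final, 0.5% DMSO, triplicate biological replicates.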

[17] = molecular target: Luciferin 4-monooxygenase (Photinus pyralis) (UniProt P08659); test: CCTE_Simmons_QuantiLum_inhib_2: CCTE's Firefly Luciferase Inhibition Assay, Simmons Lab (AID 2283767; active means hit-call score of the fitted dose curve at least 0.9, where 1 is the maximum;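 further: potency for inhibitors that lower luciferase luminescence relative to DMSO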)
Method in brief: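 Luminescence loss relative to DMSO vehicle defines inhibition; detection reagent containing 150 uM D-luciferin and 147 uM dATP (final, pH 7.8) is injected immediately before each read. Enzyme is preincubated with an 8-point titration (5 nM–87.5 uM final) for 30 min at 37C.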

[18] = system: Sodium/Iodide Symporter (NIS), SLC5A5 (gene 6528); test: CPHEA_Stoker_NIS_Inhibition_RAIU: CPHEA's Radioactive Iodide Uptake (RAIU) Assay for Sodium/Iodide Symporter (NIS) Inhibition, Stoker and Laws Labs (AID 2283841; active means hit-call score of the fitted dose curve at least 0.9, where 1 is the maximum)
Method in brief: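 hNIS-HEK293T-EPA cells incubated 2 h at room temperature with compound (0.001–100 uM, 0.5% DMSO) and 329 pM final 125I in HBSS/10 mM HEPES, pH 7.4. Intracellular 125I counted; normalised to DMSO maximal uptake, triplicate, three biological replicates.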

[19] = CCTE_Shafer_MEA_dev_per_burst_spike_percent: CCTE's Neural Network Formation Assay for Percent of Spikes in a Burst, Shafer Lab (AID 2284032)
Method in brief: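 Rat primary cortical neurons on 16-electrode MEA wells, dosed from plating day 0 for 12 days with renewal on DIV 5 and 9; spikes-in-bursts percentage averaged over bursting electrodes, collapsed as AUC across days 5, 7, 9, 12; loss direction versus DMSO.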

[20] = CCTE_Shafer_MEA_dev_interburst_interval_mean: CCTE's Neural Network Formation Assay for Mean Interburst Interval, Shafer Lab (AID 2284046);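 further: well-mean interburst interval of bursting electrodes as AUC over four recording days; curve fitted for decrease in interburst interval relative to DMSO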
Method in brief: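 Recordings on days 5, 7, 9 and 12 give well-mean interburst interval across actively bursting electrodes, summarized as area under the curve. Cultures: rat cortical neurons, continuous exposure from day 0, compound renewed at feeds; decrease analyzed versus DMSO.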

Measured: AC50

S=C(S)NCCNC(=S)S.[Mn+2].[S-]C([S-])=NCCN=C([S-])[S-].[Zn+2]
inactive: [3] | [4] | [14] | [15] | [18] | [19] | [20]
active: [1] 5750 nM | [2] 2480 nM | [5] 211 nM | [6] 378 nM | [7] 1020 nM | [8] 3320 nM | [9] 1150 nM | [10] 706 nM | [11] 1180 nM | [12] 1460 nM | [13] 1440 nM | [16] 21900 nM | [17] 18500 nM

Reference: PubChem BioAssay (EPA / NIEHS)
